Reference: PMC9409066, “Functional Characterization of the Venus Flytrap Domain of the Human TAS1R2 Sweet Taste Receptor” (International Journal of Molecular Sciences, 2022)
Substitutions are numbered along the chain they refer to. Names and notes keep the numbering of the source. Results are given in words; binding and its absence hold for the method and conditions named.

Legend:
[1] = target: human TAS1R2 Venus Flytrap domain (hTAS1R2-VFT) (human) (UniProt Q8TE23); assay: SEC-MALS; Superdex 200 10/300, 50 mM Tris-HCl pH 8, 150 mM NaCl, 0.5 mM DDM; fractions 16 and 17 of the preparative gel filtration; dn/dc 0.185 mL/g; self-association; both purified
[2] = target: human TAS1R2 Venus Flytrap domain (hTAS1R2-VFT) (human) (UniProt Q8TE23); assay: SEC; preparative gel filtration, Superdex 200 16/600, 50 mM Tris-HCl pH 8, 150 mM NaCl, 0.5 mM DDM, 1 mM DTT, 1 mL/min; refolded protein concentrated to 2 mg/mL; self-association; both purified
[3] = target: hTAS1R2-VFT-D278A (human) (UniProt Q8TE23); assay: as above

B1: human TAS1R2 Venus Flytrap domain (hTAS1R2-VFT) (domain or fragment, UniProt Q8TE23 22-493)
chain: AENSDFYLPGDYLLGGLFSLHANMKGIVHLNFLQVPMCKEYEVKVIGYNLMQAMRFAVEEINNDSSLLPGVLLGYEIVDVCYISNNVQPVLYFLAHEDNLLPIQEDYSNYISRVVAVIGPDNSESVMTVANFLSLFLLPQITYSAISDELRDKVRFPALLRTTPSADHHIEAMVQLMLHFRWNWIIVLVSSDTYGRDNGQLLGERVARRDICIAFQETLPTLQPNQNMTSEERQRLVTIVDKLQQSTARVVVVFSPDLTLYHFFNEVLRQNFTGAVWIASESWAIDPVLHNLTELRHLGTFLGITIQSVPIPGFSEFREWGPQAGPPPLSRTSQSYTCNQECDNCLNATLSFNTILRLSGERVVYSVYSAVYAVAHALHSLLGCDKSTCTKRVVYPWQLLEEIWKVNFTLLDHQIFFDPQGDVALHLEIVQWQWDRSQNPFQSVASYYPLQRQLKNIQDISWHTINNTIPMS
binding [1]: no binding
binding [2]: no binding (tested: 2 mg/mL)

B2: hTAS1R2-VFT-D278A (domain or fragment, UniProt Q8TE23 22-493)
chain: B1 chain with D257A
binding [3]: no binding
